Primary screen of a compound library

The chains behind the UniProt entries cited, without tags or fusion partners.
UniProt E9BF75, entry or part of it: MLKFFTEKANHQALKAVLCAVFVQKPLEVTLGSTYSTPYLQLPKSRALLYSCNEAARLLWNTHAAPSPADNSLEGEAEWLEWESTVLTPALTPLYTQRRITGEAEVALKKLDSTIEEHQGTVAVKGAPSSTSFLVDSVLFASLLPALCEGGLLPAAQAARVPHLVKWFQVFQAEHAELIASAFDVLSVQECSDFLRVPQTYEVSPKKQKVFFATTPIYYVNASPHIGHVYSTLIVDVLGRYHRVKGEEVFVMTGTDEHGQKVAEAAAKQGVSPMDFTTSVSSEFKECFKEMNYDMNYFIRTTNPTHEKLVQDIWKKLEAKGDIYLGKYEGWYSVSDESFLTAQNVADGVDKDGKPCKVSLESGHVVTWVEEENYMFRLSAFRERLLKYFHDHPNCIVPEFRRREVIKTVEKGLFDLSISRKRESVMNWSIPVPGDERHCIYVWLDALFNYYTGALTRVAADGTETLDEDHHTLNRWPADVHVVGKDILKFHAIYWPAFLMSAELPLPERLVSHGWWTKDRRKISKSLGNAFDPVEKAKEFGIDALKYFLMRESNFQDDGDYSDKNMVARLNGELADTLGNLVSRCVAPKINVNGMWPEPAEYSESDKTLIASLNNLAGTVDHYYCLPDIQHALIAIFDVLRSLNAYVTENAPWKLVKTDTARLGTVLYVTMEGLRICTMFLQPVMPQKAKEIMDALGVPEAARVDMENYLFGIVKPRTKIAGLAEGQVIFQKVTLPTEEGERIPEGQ

The values are deposited in ChEMBL (CHEMBL3988442, “University of Dundee, Small-Polar-MMV Screening Library” (2021)).

All values are in %. The record does not define 0% and 100%; most values in the screen are far below 50% and negative numbers occur (in some assays of this library far below -100). The compounds are a random part of those screened. A dash means the value is not listed here; it may have been measured.

A: 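Assay on Mycobacterium tuberculosis, filed only as a heat shock assay from Cornell; the read-out is not stated. The concentration is filed as 10 mM, unlikely as a test dose, so the dose is not known. Higher reads as stronger inhibition (inferred: compounds with an IC50 in retests scored well above the rest). About 69,000 compounds were tested under these conditions; 1.4% (about 930) showed 50% or more at least once.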
B: 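Methionyl-tRNA synthetase (putative), Leishmania donovani (UniProt E9BF75). Primary screen of methionyl-tRNA synthetase; the read-out is not stated. The test concentration is not given. Values are per cent inhibition. Of about 68,000 compounds tested this way, about 24 (0.035%) reached 50% or more in at least one test.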
C: 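Whole-cell assay for inhibitors of Mycobacterium tuberculosis growth, labelled Cornell in the record; the read-out is not stated. The concentration is filed as 10 mM, unlikely as a test dose, so the dose is not known. Higher means stronger inhibition (inferred from two other growth screens of the library). About 53,000 compounds were tested under these conditions; 1.7% (about 900) showed 50% or more at least once.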

SMILES	A	B	C
O=C(O)C(F)(F)F.O=C(O)C(F)(F)F.c1cncc(OCc2noc3c2CN(Cc2ccco2)CC3)c1	-0.05869%	-	-20.59%
OCC1COCCN(c2ncccc2C(F)(F)F)C1 (centres unmarked)	-19.99%	15.32%	-41.45%
CC(C)C(=O)NCCNC(=O)C12CCC(=O)N1c1cc(Cl)ccc1S2 (centres unmarked)	18.11%	9.091%	29.32%
CC(=O)NCC(=O)N1CCOC2(CCCN(c3cccnc3)C2)C1 (centres unmarked)	-	5.714%	-
CC(C)=CCN1CCN(C(=O)c2cc(C(C)C)on2)[C@H]2CS(=O)(=O)C[C@H]21	-	9.561%	-
CN1CCCc2cc(CNC(=O)c3cc[n+]([O-])cc3)ccc21	-10.18%	14.25%	-5.14%
CN(C)S(=O)(=O)N1CCCC(c2cccc(Cc3ccc(Cl)cc3)n2)C1 (centres unmarked)	0.3807%	17.65%	-
Cn1cc(CN2CC[C@H]3CO[C@H](CNc4ncccn4)[C@H]3C2)cn1	-	7.113%	-
Cc1ncsc1CN1CC[C@](C)(O)[C@@H](Oc2cccc(F)c2)C1	-17.37%	-0.2353%	-
CCOCC(=O)Nc1cc(-c2cccc(F)c2F)n[nH]1	4%	19.77%	57.77%
O=C(O)C(F)(F)F.[H][C@@]12COC[C@]1(COCC)CN(Cc1cccc(OC)c1)C2	-25.48%	-	7.944%
Cn1cc(CNC2CCc3c(ccc(=O)n3Cc3ccncc3)C2)cn1.O=C(O)C(F)(F)F.O=C(O)C(F)(F)F (centres unmarked)	13.74%	-	-20.59%
CCc1nc(C2CCCN(C(=O)c3ccc(Cl)cc3)C2)no1 (centres unmarked)	-0.6866%	10.5%	-
CC(C)NC(=O)C1CN(C(=O)NCc2ccccc2)CC12CCOCC2 (centres unmarked)	-29.89%	2%	-9.144%
Cc1noc(C)c1CCC(=O)N1CCOCC1CC(=O)N1CCCC1 (centres unmarked)	2.918%	14.64%	-14.3%
CCn1cc(CN2CCN(C(=O)c3cc(Br)cs3)CC2)c(C)n1	-17.71%	5.995%	18.36%
COCc1cc(N(CC(F)F)C2CC2)n2ncnc2n1	-41.26%	16.54%	-
CCn1cc(NC(=O)C2CCN(Cc3nc(C)c(C)o3)CC2)cn1	1.961%	19.83%	24.07%
CCn1cc(Br)c(C(=O)NCc2ccccc2)n1	-19.12%	-6.203%	-0.8252%
C=Cn1ncc(CN2C[C@@H]3CCCN3C[C@@H]2Cc2ccccc2)c1C	-	15.41%	-
CC1CN(c2cc(CNCc3cccc4c3OCCO4)ccn2)CCO1 (centres unmarked)	12.56%	15.36%	-13.56%
CN(CCc1ccccc1)c1cnn(CC(=O)N2CCSCC2)c(=O)c1	-8.987%	8.374%	-4.672%
CCS(=O)(=O)N1CCc2ccc(NC(=O)Nc3cccc(C#N)c3)cc21	39.54%	7.324%	83.89%
CN1CCOC(C(=O)Nc2nc(-c3ccc4c(c3)CCC4)n[nH]2)C1 (centres unmarked)	-13.44%	4.178%	11.23%
CCc1nc(C2CCCN(C(=O)c3cccc(C(N)=O)c3)C2)no1 (centres unmarked)	-31.32%	25.41%	-
CCNC(c1ccc(OC)cc1)c1cccnc1 (centres unmarked)	-22.61%	8.333%	-
CNC(=O)COc1ccccc1CNC1CCc2ncnn2C1 (centres unmarked)	10.24%	7.975%	-12.43%
Cn1ccnc1C(=O)N[C@@H]1CN(Cc2ccoc2)[C@@H]2CCCO[C@@H]21	-	16.62%	-
CCN(CC(=O)Nc1c(C)n[nH]c1C)CC(O)c1ccc(C)cc1 (centres unmarked)	-5.855%	6.72%	-20.3%
[H][C@@]12CN(C(=O)CC(F)(F)F)C[C@]1([H])C(=O)N(Cc1csc(C)n1)C2	-0.6373%	-	8.468%
COc1cccc(F)c1CN1CCC(c2nc(C)cc(C)n2)C1 (centres unmarked)	-20.28%	-4.07%	-18.97%
O=C(NCc1ccnc(-n2cccn2)c1)C1CC(=O)N(CC2CC2)C1 (centres unmarked)	-3.086%	22.65%	-
COc1ccc(CN2CCc3ncnc(C4CC4)c3CC2)cc1.O=C(O)C(F)(F)F	-19.93%	-	27.91%
COc1cccc(OCCNS(=O)(=O)Cc2ccccc2)c1	19.91%	-2.102%	-14.56%
COC1CCCN(C2CCN(c3cccc(-c4csc(C)n4)c3)CC2)C1 (centres unmarked)	-20.95%	18.37%	-0.3551%
Cc1ccc(Nc2nccc(C3CN(CC(N)=O)C3)n2)nc1	-10.17%	22.95%	1.59%
O=C1CC(C2CCCCC2)c2c(n(C3CCCC3)[nH]c2=O)N1 (centres unmarked)	-4.756%	9.938%	14.18%
CN(C)C(=O)CN1C(=O)CCC12CCN(Cc1ccc(F)cc1)CC2.O=C(O)C(F)(F)F	-25.41%	-	13.62%
N#Cc1cccc(CN2CCC3(CC2)CC(c2ccncc2)C(=O)N3)c1.O=C(O)C(F)(F)F.O=C(O)C(F)(F)F (centres unmarked)	-35.16%	-	22.22%
CN(CCc1cnn(C)c1)C(=O)C(c1ccccc1F)N(C)C (centres unmarked)	-17.85%	15.38%	-
Cc1nn(C)cc1C(C)Nc1ncc(C(N)=O)cc1Cl (centres unmarked)	14.79%	13.17%	-49.72%

For reference, 3 entries once more:

SMILES	A	B	C
N#Cc1cccc(CN2CCC3(CC2)CC(c2ccncc2)C(=O)N3)c1.O=C(O)C(F)(F)F.O=C(O)C(F)(F)F (centres unmarked)	-35.16%	-	22.22%
CN1CCCc2cc(CNC(=O)c3cc[n+]([O-])cc3)ccc21	-10.18%	14.25%	-5.14%
CC(C)NC(=O)C1CN(C(=O)NCc2ccccc2)CC12CCOCC2 (centres unmarked)	-29.89%	2%	-9.144%